# Laboratory results published in publication PMC8384837.
# Positions count from the first letter of the chain named. The list shows a part of the results. For some assays here: At the low end of the ranking, values are background and their order means little.
# Assays:
# Conditions in all cases: yeast three-hybrid, YBZ-1, SC-Leu-His + 0.5 mM 3-AT, 4 days
# [1] = molecular target: T1, PUM1 PUF domain R5-QRL C1007Q + Q1011L (Homo sapiens) (UniProt Q14671)
# T1 sequence: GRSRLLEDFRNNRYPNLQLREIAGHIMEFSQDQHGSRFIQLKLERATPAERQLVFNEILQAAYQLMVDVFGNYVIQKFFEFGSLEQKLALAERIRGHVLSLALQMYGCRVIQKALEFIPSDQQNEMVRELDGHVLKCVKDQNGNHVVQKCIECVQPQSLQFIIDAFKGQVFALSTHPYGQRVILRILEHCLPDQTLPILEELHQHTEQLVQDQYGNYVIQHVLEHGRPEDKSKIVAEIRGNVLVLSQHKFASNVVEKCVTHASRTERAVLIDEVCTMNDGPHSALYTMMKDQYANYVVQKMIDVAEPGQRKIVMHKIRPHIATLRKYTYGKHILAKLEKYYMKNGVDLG
# [2] = molecular target: T2, PUM1 PUF domain R5-QTI C1007Q + R1008T + Q1011I (Homo sapiens) (UniProt Q14671)
# T2 sequence: T1 sequence with R181T, L184I
# [3] = molecular target: T3, PUM1 PUF domain R5-RAV C1007R + R1008A + Q1011V (Homo sapiens) (UniProt Q14671)
# T3 sequence: T1 sequence with Q180R, R181A, L184V
# [4] = molecular target: T4, PUM1 PUF domain R5-RCK C1007R + R1008C + Q1011K (Homo sapiens) (UniProt Q14671)
# T4 sequence: T1 sequence with Q180R, R181C, L184K
# [5] = molecular target: T5, PUM1 PUF domain R5-RDR C1007R + R1008D + Q1011R (Homo sapiens) (UniProt Q14671)
# T5 sequence: T1 sequence with Q180R, R181D, L184R
# [6] = molecular target: T6, PUM1 PUF domain R5-RGW C1007R + R1008G + Q1011W (Homo sapiens) (UniProt Q14671)
# T6 sequence: T1 sequence with Q180R, R181G, L184W
# [7] = molecular target: T7, PUM1 PUF domain R5-RKM C1007R + R1008K + Q1011M (Homo sapiens) (UniProt Q14671)
# T7 sequence: T1 sequence with Q180R, R181K, L184M
# [8] = molecular target: T8, PUM1 PUF domain R5-RLT C1007R + R1008L + Q1011T (Homo sapiens) (UniProt Q14671)
# T8 sequence: T1 sequence with Q180R, R181L, L184T
# [9] = molecular target: T9, PUM1 PUF domain R5-RMV C1007R + R1008M + Q1011V (Homo sapiens) (UniProt Q14671)
# T9 sequence: T1 sequence with Q180R, R181M, L184V
# [10] = molecular target: T10, PUM1 PUF domain R5-RTL C1007R + R1008T + Q1011L (Homo sapiens) (UniProt Q14671)
# T10 sequence: T1 sequence with Q180R, R181T
# [11] = molecular target: T11, PUM1 PUF domain R5-SAC C1007S + R1008A + Q1011C (Homo sapiens) (UniProt Q14671)
# T11 sequence: T1 sequence with Q180S, R181A, L184C
# [12] = molecular target: T12, PUM1 PUF domain R5-SAG C1007S + R1008A + Q1011G (Homo sapiens) (UniProt Q14671)
# T12 sequence: T1 sequence with Q180S, R181A, L184G
# [13] = molecular target: T13, PUM1 PUF domain R5-SAP C1007S + R1008A + Q1011P (UniProt Q14671)
# T13 sequence: T1 sequence with Q180S, R181A, L184P
# [14] = molecular target: T14, PUM1 PUF domain R5-SAS C1007S + R1008A + Q1011S (Homo sapiens) (UniProt Q14671)
# T14 sequence: T1 sequence with Q180S, R181A, L184S
# [15] = molecular target: T15, PUM1 PUF domain R5-SDE C1007S + R1008D + Q1011E (UniProt Q14671)
# T15 sequence: T1 sequence with Q180S, R181D, L184E
# [16] = molecular target: T16, PUM1 PUF domain R5-SED C1007S + R1008E + Q1011D (UniProt Q14671)
# T16 sequence: T1 sequence with Q180S, R181E, L184D
# [17] = molecular target: T17, PUM1 PUF domain R5-SER C1007S + R1008E + Q1011R (Homo sapiens) (UniProt Q14671)
# T17 sequence: T1 sequence with Q180S, R181E, L184R
# [18] = molecular target: T18, PUM1 PUF domain R5-SGC C1007S + R1008G + Q1011C (Homo sapiens) (UniProt Q14671)
# T18 sequence: T1 sequence with Q180S, R181G, L184C
# [19] = molecular target: T19, PUM1 PUF domain R5-SGG C1007S + R1008G + Q1011G (UniProt Q14671)
# T19 sequence: T1 sequence with Q180S, R181G, L184G
# [20] = molecular target: T20, PUM1 PUF domain R5-SGS C1007S + R1008G + Q1011S (UniProt Q14671)
# T20 sequence: T1 sequence with Q180S, R181G, L184S
# [21] = molecular target: T21, PUM1 PUF domain R5-SGT C1007S + R1008G + Q1011T (UniProt Q14671)
# T21 sequence: T1 sequence with Q180S, R181G, L184T
# [22] = molecular target: T22, PUM1 PUF domain R5-SGV C1007S + R1008G + Q1011V (UniProt Q14671)
# T22 sequence: T1 sequence with Q180S, R181G, L184V
# [23] = molecular target: T23, PUM1 PUF domain R5-SIC C1007S + R1008I + Q1011C (Homo sapiens) (UniProt Q14671)
# T23 sequence: T1 sequence with Q180S, R181I, L184C
# [24] = molecular target: T24, PUM1 PUF domain R5-SIS C1007S + R1008I + Q1011S (UniProt Q14671)
# T24 sequence: T1 sequence with Q180S, R181I, L184S
# [25] = molecular target: T25, PUM1 PUF domain R5-SKQ C1007S + R1008K (Homo sapiens) (UniProt Q14671)
# T25 sequence: T1 sequence with Q180S, R181K, L184Q
# [26] = molecular target: T26, PUM1 PUF domain R5-SLC C1007S + R1008L + Q1011C (Homo sapiens) (UniProt Q14671)
# T26 sequence: T1 sequence with Q180S, R181L, L184C
# [27] = molecular target: T27, PUM1 PUF domain R5-SLH C1007S + R1008L + Q1011H (UniProt Q14671)
# T27 sequence: T1 sequence with Q180S, R181L, L184H
# [28] = molecular target: T28, PUM1 PUF domain R5-SRI C1007S + Q1011I (Homo sapiens) (UniProt Q14671)
# T28 sequence: T1 sequence with Q180S, L184I
# [29] = molecular target: T29, PUM1 PUF domain R5-SRR C1007S + Q1011R (Homo sapiens) (UniProt Q14671)
# T29 sequence: T1 sequence with Q180S, L184R
# [30] = molecular target: T30, PUM1 PUF domain R5-SRT C1007S + Q1011T (Homo sapiens) (UniProt Q14671)
# T30 sequence: T1 sequence with Q180S, L184T
# [31] = molecular target: T31, PUM1 PUF domain R5-SRV C1007S + Q1011V (Homo sapiens) (UniProt Q14671)
# T31 sequence: T1 sequence with Q180S, L184V
# [32] = molecular target: T32, PUM1 PUF domain R5-SSR C1007S + R1008S + Q1011R (UniProt Q14671)
# T32 sequence: T1 sequence with Q180S, R181S, L184R
# [33] = molecular target: T33, PUM1 PUF domain R5-SVG C1007S + R1008V + Q1011G (Homo sapiens) (UniProt Q14671)
# T33 sequence: T1 sequence with Q180S, R181V, L184G
# [34] = molecular target: T34, PUM1 PUF domain R5-SVS C1007S + R1008V + Q1011S (UniProt Q14671)
# T34 sequence: T1 sequence with Q180S, R181V, L184S
# [35] = molecular target: T35, PUM1 PUF domain R5-SVT C1007S + R1008V + Q1011T (UniProt Q14671)
# T35 sequence: T1 sequence with Q180S, R181V, L184T
# [36] = molecular target: T36, PUM1 PUF domain R5-SVV C1007S + R1008V + Q1011V (UniProt Q14671)
# T36 sequence: T1 sequence with Q180S, R181V, L184V
# [37] = molecular target: T37, PUM1 PUF domain R5-TEE C1007T + R1008E + Q1011E (UniProt Q14671)
# T37 sequence: T1 sequence with Q180T, R181E, L184E
# [38] = molecular target: T38, PUM1 PUF domain R5-TGR C1007T + R1008G + Q1011R (Homo sapiens) (UniProt Q14671)
# T38 sequence: T1 sequence with Q180T, R181G, L184R
# [39] = molecular target: T39, PUM1 PUF domain R5-TPR C1007T + R1008P + Q1011R (Homo sapiens) (UniProt Q14671)
# T39 sequence: T1 sequence with Q180T, R181P, L184R
# [40] = molecular target: T40, PUM1 PUF domain R5-TSR C1007T + R1008S + Q1011R (Homo sapiens) (UniProt Q14671)
# T40 sequence: T1 sequence with Q180T, R181S, L184R
# [41] = molecular target: T41, PUM1 PUF domain R5-TVD C1007T + R1008V + Q1011D (UniProt Q14671)
# T41 sequence: T1 sequence with Q180T, R181V, L184D
# [42] = molecular target: T42, PUM1 PUF domain R5-VRV C1007V + Q1011V (UniProt Q14671)
# T42 sequence: T1 sequence with Q180V, L184V
# [43] = molecular target: T43, PUM1 PUF domain R5-VYF C1007V + R1008Y + Q1011F (UniProt Q14671)
# T43 sequence: T1 sequence with Q180V, R181Y, L184F
# [44] = molecular target: T44, PUM1 PUF domain R5-VYY C1007V + R1008Y + Q1011Y (UniProt Q14671)
# T44 sequence: T1 sequence with Q180V, R181Y, L184Y
# [45] = molecular target: T45, PUM1 PUF domain R5-WHV C1007W + R1008H + Q1011V (Homo sapiens) (UniProt Q14671)
# T45 sequence: T1 sequence with Q180W, R181H, L184V
# [46] = molecular target: T46, PUM1 PUF domain R5-WSR C1007W + R1008S + Q1011R (UniProt Q14671)
# T46 sequence: T1 sequence with Q180W, R181S, L184R
# [47] = molecular target: T47, PUM1 PUF domain R5-YNG C1007Y + R1008N + Q1011G (UniProt Q14671)
# T47 sequence: T1 sequence with Q180Y, R181N, L184G
sequence,measurement,setting,value
GGCUAGAACUAGUGGAUCCCCCGGCGCCCGGCGGCUCGAGCCCGGGUAAGUGUUAAUAGUCUGCAUGCCGCCGGGCGCCAUGCCUGCAGGUCGACUCUAGAAAACAUG,binding signal (log2 enrichment (interaction score)),[1],-1.75
same,binding signal (log2 enrichment (interaction score)),[2],-0.5
same,binding signal (log2 enrichment (interaction score)),[3],-0.49
same,binding signal (log2 enrichment (interaction score)),[4],-0.59
same,binding signal (log2 enrichment (interaction score)),[5],0.02
same,binding signal (log2 enrichment (interaction score)),[6],-0.24
same,binding signal (log2 enrichment (interaction score)),[7],-0.02
same,binding signal (log2 enrichment (interaction score)),[8],-1.39
same,binding signal (log2 enrichment (interaction score)),[9],-0.67
same,binding signal (log2 enrichment (interaction score)),[10],-0.41
same,binding signal (log2 enrichment (interaction score)),[11],0.66
same,binding signal (log2 enrichment (interaction score)),[12],-1.25
same,binding signal (log2 enrichment (interaction score)),[13],-2.45
same,binding signal (log2 enrichment (interaction score)),[14],-0.75
same,binding signal (log2 enrichment (interaction score)),[15],-6.34
same,binding signal (log2 enrichment (interaction score)),[16],-6.92
same,binding signal (log2 enrichment (interaction score)),[17],-1.12
same,binding signal (log2 enrichment (interaction score)),[18],-1.13
same,binding signal (log2 enrichment (interaction score)),[19],-3.5
same,binding signal (log2 enrichment (interaction score)),[20],-3
same,binding signal (log2 enrichment (interaction score)),[21],-3.47
same,binding signal (log2 enrichment (interaction score)),[22],-2.42
same,binding signal (log2 enrichment (interaction score)),[23],-1.13
same,binding signal (log2 enrichment (interaction score)),[24],-2.36
same,binding signal (log2 enrichment (interaction score)),[25],-0.02
same,binding signal (log2 enrichment (interaction score)),[26],-0.94
same,binding signal (log2 enrichment (interaction score)),[27],-4.18
same,binding signal (log2 enrichment (interaction score)),[28],0.46
same,binding signal (log2 enrichment (interaction score)),[29],0.01
same,binding signal (log2 enrichment (interaction score)),[30],-0.1
same,binding signal (log2 enrichment (interaction score)),[31],-0.67
same,binding signal (log2 enrichment (interaction score)),[32],-5.37
same,binding signal (log2 enrichment (interaction score)),[33],-2.45
same,binding signal (log2 enrichment (interaction score)),[34],-3.31
same,binding signal (log2 enrichment (interaction score)),[35],-2.59
same,binding signal (log2 enrichment (interaction score)),[36],-3.53
same,binding signal (log2 enrichment (interaction score)),[37],-7.42
same,binding signal (log2 enrichment (interaction score)),[38],-1.72
same,binding signal (log2 enrichment (interaction score)),[39],-0.55
same,binding signal (log2 enrichment (interaction score)),[40],-0.58
same,binding signal (log2 enrichment (interaction score)),[41],-5.06
same,binding signal (log2 enrichment (interaction score)),[42],-3.52
same,binding signal (log2 enrichment (interaction score)),[43],-2.37
same,binding signal (log2 enrichment (interaction score)),[44],< -7.13
same,binding signal (log2 enrichment (interaction score)),[45],-1.18
same,binding signal (log2 enrichment (interaction score)),[46],-4.98
same,binding signal (log2 enrichment (interaction score)),[47],-4.52

# A portion from the list above, as a working copy:
sequence,measurement,setting,value
GGCUAGAACUAGUGGAUCCCCCGGCGCCCGGCGGCUCGAGCCCGGGUAAGUGUUAAUAGUCUGCAUGCCGCCGGGCGCCAUGCCUGCAGGUCGACUCUAGAAAACAUG,binding signal (log2 enrichment (interaction score)),[4],-0.59
same,binding signal (log2 enrichment (interaction score)),[5],0.02
same,binding signal (log2 enrichment (interaction score)),[6],-0.24
same,binding signal (log2 enrichment (interaction score)),[7],-0.02
same,binding signal (log2 enrichment (interaction score)),[8],-1.39
same,binding signal (log2 enrichment (interaction score)),[9],-0.67
same,binding signal (log2 enrichment (interaction score)),[10],-0.41
same,binding signal (log2 enrichment (interaction score)),[11],0.66
same,binding signal (log2 enrichment (interaction score)),[12],-1.25
same,binding signal (log2 enrichment (interaction score)),[13],-2.45
same,binding signal (log2 enrichment (interaction score)),[14],-0.75
same,binding signal (log2 enrichment (interaction score)),[15],-6.34
same,binding signal (log2 enrichment (interaction score)),[16],-6.92
